# Measured values reported in PubChem BioAssay AID1347076 (National Center for Advancing Translational Sciences (NCATS), 2019).
# In all, about 400,000 compounds went through this assay and about 13,000 (3.2%) were called active. The shares of active, inactive and inconclusive entries below differ from those in the screen. Calls follow the shape of the dose curve; as a rule, active = well fitted cell-killing curve with a large enough effect; inconclusive = small, poorly fitted or top-dose-only effect, or effect the other way; inactive = flat fitted curve, though single readings scatter. Where the call is inconclusive, the potency comes from a doubtful curve fit. Where a structure was tested more than once in an assay, its records may differ in their call.
# Experiment: qHTS assay for MDR1-selective chemotherapeutics: Primary screen using the drug-selected MDR subline cells KB-V1; also: nearly all actives have a fitted effect of over 60% in size
# Settings: KB-V1 MDR cells viability, CellTiter-Glo, 72 h; activity change, negative = cytotoxicity: at 46.1 µM (top of the series)
# Summary of the method: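 Drug-selected KB-V1 cells, grown in DMEM lacking phenol red with 10% FBS, receive compound titrations; after three days at 37 degrees C, surviving cell ATP is quantified by CellTiter-Glo luminescence and responses normalized and curve-fitted.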
# % is scaled to controls: 0 for no effect and ±100 for the full control effect; potency is read from the fitted curve at half-maximal effect.
SMILES,Potency,"activity change, negative = cytotoxicity"
CC(=O)O[C@]1(C(C)=O)CC[C@H]2[C@@H]3C=CC4=CC(=O)C=C[C@]4(C)[C@H]3CC[C@@]21C,active: 13 µM,
COc1ccc(S(=O)(=O)Nc2ccc(C)cc2)cc1OC,"inconclusive: 23.1 µM [cytotoxic, single point]",
CC(Oc1ccc(Cl)cc1Cl)C(=O)NNC(=O)c1cccnc1 (centres undefined),,inactive: -0.512%
Oc1c(Br)cccc1/C=N/Nc1c(F)c(F)c(F)c(F)c1F,active: 25.9 µM,
O=C(c1ccc(N2CCCC2=O)cc1)N1CCN(c2ccc(C(F)(F)F)cc2[N+](=O)[O-])CC1,"inconclusive: 8.2 µM [cytotoxic, partial curve]",
COc1ccc(CC(=O)OCc2nnc(C3COc4ccccc4O3)o2)cc1OC (centres undefined),"inconclusive: 32.6 µM [cytotoxic, single point]",
CC1CN(CC(O)COc2ccc(C(=O)c3ccccc3)cc2)CC(C)O1 (centres undefined),"inconclusive: 16.4 µM [cytotoxic, single point]",
COc1cccc(N2CCN(c3nc(C)c(C)c(=O)[nH]3)CC2)c1,,inactive: -18.2%
O=C(N/N=C\c1cn(-c2ccccc2)nc1-c1ccccc1)c1ccc(Br)o1,"inconclusive: 20.6 µM [cytotoxic, partial curve, poor fit]",
O=C(Nc1ccc(Cl)cc1)Nc1nnc(-c2ccncc2)s1,active: 2.59 µM,
N#Cc1ccc(CN2C(=O)c3ccccc3Sc3ccc(C(=O)OCc4ccco4)cc32)cc1,"inconclusive: 6.51 µM [cytotoxic, partial curve]",
Cn1ncc([N+](=O)[O-])c1C(=O)Nc1ccccc1C#N,"inconclusive: 23.1 µM [cytotoxic, single point]",
COc1ccc(S(=O)(=O)N2CCCCCC2)cc1NC(=O)Cc1ccccc1F,"inconclusive: 23.1 µM [cytotoxic, single point]",
Cc1nn(-c2ccccn2)c2c1-c1nc(N)ncc1CC2,,inactive: -14.6%
CC1CCN(C2=C(NS(=O)(=O)c3ccc(Br)cc3)C(=O)c3ccccc3C2=O)CC1,"inconclusive: 20.6 µM [cytotoxic, single point]",
Cc1ccc(NC(=O)Nc2nnc(N3CCCC3)s2)c(C)c1,"inconclusive: 0.0092 µM [rising, full curve]",
O=C1CCc2nc3ccccc3c(=O)n2N1,"inconclusive: 9.2 µM [rising, partial curve, poor fit]",
Cc1nn(C)cc1/C=N/NC(=S)Nc1ccccc1,"inconclusive: 18.4 µM [cytotoxic, partial curve, poor fit]",
O=C(Nc1cc(S(=O)(=O)N2CCOCC2)ccc1N1CCOCC1)c1cccs1,"inconclusive: 10.3 µM [cytotoxic, partial curve]",
O=C(CNC(=O)c1ccccc1Br)NCCSc1ccc(Br)cc1,"inconclusive: 16.4 µM [cytotoxic, single point]",
COC(=O)c1ccc(S(=O)(=O)NCCc2ccccc2OC)n1C,"inconclusive: 14.6 µM [cytotoxic, partial curve, poor fit]",
CCc1cc(/C(Cc2csc(C)n2)=N/O)c(O)cc1O,"inconclusive: 18.4 µM [cytotoxic, single point]",
O=C(NCCc1ccccc1)C(=O)NCC1OCCN1S(=O)(=O)c1cc(F)ccc1F (centres undefined),"inconclusive: 14.6 µM [rising, partial curve, poor fit]",

# Molecules listed so far that have a nitro group on carbon:
SMILES,Potency,"activity change, negative = cytotoxicity"
O=C(c1ccc(N2CCCC2=O)cc1)N1CCN(c2ccc(C(F)(F)F)cc2[N+](=O)[O-])CC1,"inconclusive: 8.2 µM [cytotoxic, partial curve]",
Cn1ncc([N+](=O)[O-])c1C(=O)Nc1ccccc1C#N,"inconclusive: 23.1 µM [cytotoxic, single point]",

# 2 of these compounds in a different format.
SMILES	Potency	activity change, negative = cytotoxicity
CC1CN(CC(O)COc2ccc(C(=O)c3ccccc3)cc2)CC(C)O1 (centres undefined)	inconclusive: 16.4 µM [cytotoxic, single point]	
COc1cccc(N2CCN(c3nc(C)c(C)c(=O)[nH]3)CC2)c1		inactive: -18.2%

# Later entries

SMILES,Potency,"activity change, negative = cytotoxicity"
CCC(C)[C@H]1CNCCN1CCc1cc(C(F)(F)F)cc(C(F)(F)F)c1 (some centres undefined),,inactive: -10.3%
O=C(NCC1CCCO1)C(=O)c1c[nH]c2ccccc12 (centres undefined),"inconclusive: 29.1 µM [cytotoxic, single point]",
COCCNC(=S)N1CCN(c2cccc(C(F)(F)F)c2)CC1,,inactive: -0.114%
O=C(Nc1nnc(C2CC2)s1)C1Cc2ccccc2CN1S(=O)(=O)c1ccccc1F (centres undefined),"inconclusive: 18.4 µM [cytotoxic, partial curve]",
Cc1nc2ccccn2c1C(=O)NCc1ccc2c(c1)OCO2,active: 16.4 µM,
CCOC(=O)/C=C/C(=O)Nc1ccc(S(=O)(=O)N2CCCCCC2)cc1,,inactive: -4.4%
Cc1ccc(S(=O)(=O)N(C)C[C@@H]2OCc3cnnn3CCCC(=O)N([C@H](C)CO)C[C@H]2C)cc1,"inconclusive: 0.0366 µM [rising, full curve]",
COc1ccc(-n2c(C)cc(-c3csc(NC(=O)c4ccc(S(=O)(=O)N(C)C)cc4)n3)c2C)cc1,"inconclusive: 32.6 µM [rising, partial curve, poor fit]",
O=C(COC(=O)c1cccc(F)c1)NC(=O)NC1CCCC1,,inconclusive: 30.3%
O=C(NCCSCc1ccc(Cl)cc1)C1CCN(S(=O)(=O)Cc2ccccc2)CC1,,inactive: -0.241%
Cn1nc(C(=O)Nc2cccc(S(=O)(=O)N3CCCCC3)c2)c2ccccc2c1=O,,inactive: -1.44%
[N-]=[N+]=N[C@@H](CCN1CC[C@H](NC(=O)OCc2ccccc2)CCC1=O)c1ccccc1,"inconclusive: 18.4 µM [cytotoxic, partial curve]",
Cc1cccn2c(=O)c(C(=O)NCCCN3CC(C)CC(C)C3)c(O)nc12 (centres undefined),,inactive: -26%
Cc1ccc(-c2c(C(=O)Nc3ccc(F)c(F)c3)oc(=O)c3ccccc23)cc1,,inactive: 10.9%
COc1ccc(/C=C/C(=O)C2(O)CCCCC2)cc1,"inconclusive: 20.6 µM [cytotoxic, single point]",
CC(C)Nc1nc(NCCOc2ccccc2Cl)c2sc(-c3ccccc3)cc2n1,"inconclusive: 29.1 µM [cytotoxic, single point]",
COc1cc(NC2CCCCC2O)c2nc(-c3ccc(Cl)cc3)ccc2c1 (centres undefined),"inconclusive: 0.82 µM [cytotoxic, full curve, poor fit]",
CC(C)OCCCN1CN(S(=O)(=O)c2cccc(Cl)c2)c2nc3ccccc3nc21,"inconclusive: 23.1 µM [cytotoxic, single point]",
CN(C)C(=O)c1cccn(Cc2cccc(C(F)(F)F)c2)c1=O,"inconclusive: 18.4 µM [rising, partial curve, poor fit]",
COC(=O)c1sccc1NC(=O)Nc1ccc(F)cc1,,inactive: 26.6%
CC1CCCN(C(=O)CCS(=O)(=O)Cc2ccccc2)C1 (centres undefined),"inconclusive: 23.1 µM [cytotoxic, single point]",
N#Cc1c(-c2ccccc2)cc(C2CC2)nc1SCC(=O)c1cccs1,"inconclusive: 20.6 µM [cytotoxic, partial curve, poor fit]",
CC(=O)N1CCC(C(=O)OCc2ccccc2F)(c2ccccc2)CC1,"inconclusive: 11.6 µM [cytotoxic, partial curve]",

SMILES,Potency,"activity change, negative = cytotoxicity"
COc1ccc(N2C(=O)C3C4C=CC(CC4)C3C2=O)c([N+](=O)[O-])c1 (centres undefined),"inconclusive: 29.1 µM [cytotoxic, single point]",
O=C(CSCC(=O)N1CCCCC1)Nc1nc(-c2cccs2)cs1,,inactive: 6.63%
CC(=O)[C@H]1CC[C@H]2[C@@H]3C[C@H](C)C4=CC(=O)CC[C@]4(C)[C@H]3[C@@H](O)C[C@]12C,"inconclusive: 6.51 µM [cytotoxic, partial curve, poor fit]",
CC(=O)Nc1cccc2c1C(=O)N(c1ccccc1OC(C)=O)C2=O,,inactive: -7.56%
C(=Cc1cnnc2ccccc12)c1ccccc1,"inconclusive: 2.31 µM [cytotoxic, full curve, poor fit]",
Cc1ccc(C(=O)COC(=O)[C@@H](NC(=O)c2ccco2)C(C)C)s1,,inconclusive: -15.3%
COc1cc2ccccc2cc1C(=O)NC(=S)Nc1cccc(C(=O)O)c1,"inconclusive: 29.1 µM [rising, single point]",
CCC(=O)Nc1nonc1-c1nc2ccccc2n1Cc1cccc2ccccc12,"inconclusive: 0.517 µM [cytotoxic, full curve, poor fit]",
COc1ccc(NC(=O)c2csc(Cc3ccc(Cl)cc3)n2)cc1,,inactive: 0%
COC(=O)c1ccc2[nH]c(C)c(CN3CCCC3)c(=O)c2c1,"inconclusive: 20.6 µM [rising, partial curve, poor fit]",
CCOc1ccc(CNS(=O)(=O)c2c(C(=O)N3CCCCCC3)c(C)n(C)c2C)cc1OC,,inactive: 4.89%
COc1ccc(-c2noc(CCCC(=O)NC3CCCC3)n2)cc1OC,"inconclusive: 4.61 µM [cytotoxic, full curve]",
Cc1ccc(CN(C(=O)Nc2cccc(Cl)c2)c2ccccn2)cc1,,inactive: -5.72%
O=C(CNS(=O)(=O)c1ccc(Cl)cc1)NC1CCCCC1,,inconclusive: 14.5%
CC(=O)N(O)c1ccc(/C=C2\C=Cc3ccccc32)cc1,"inconclusive: 29.1 µM [rising, single point]",
COc1ccc(NC(=O)c2nnn(Cc3nc(-c4cc(Br)ccc4OC)oc3C)c2C)cc1,"inconclusive: 0.92 µM [cytotoxic, full curve]",
CC(C)Nc1nc(Nc2ccccc2Cl)c2sccc2n1,"inconclusive: 7.31 µM [cytotoxic, partial curve]",
CCOC(=O)c1cc(C)sc1NC(=O)CSC1=NCCS1,,inactive: -4.37%
Cc1cccc(C2CC(c3ccccc3)=NN2c2ccc(S(N)(=O)=O)cc2)c1 (centres undefined),,inactive: -3.62%
CC(CNC(=O)c1ccc2c(c1)OCO2)c1ccc([N+](=O)[O-])cc1 (centres undefined),"inconclusive: 16.4 µM [cytotoxic, single point]",
COC(=O)c1ccc(CC(=O)c2nc3ccccc3s2)cc1,,inactive: 16.5%
Cc1c(C(=O)NCC2COc3ccccc3O2)oc2ccc(S(=O)(=O)N3CC(C)CC(C)C3)cc12 (centres undefined),"inconclusive: 3.26 µM [cytotoxic, full curve]",
O=C(N/N=C/c1cccc(O)c1)N/N=C/c1cccc(O)c1,"inconclusive: 1.16 µM [rising, full curve]",
